Results published in patent US20020143164A1, “Ras activator nucleic acid molecules, polypeptides and methods of use” (priority 1999, published 2002).
No constants are given. Whether binding was seen depends on the method and setting. In cells and extracts the contact can be indirect. Some results given as binding are weak or reduced against the parent protein; the word gives no strength. Where a sequence is shown, tags or fusion partners need not be part of it.

Protein sequences, listed by entry. Tags and fused reporters are not part of them. Lines headed by an entry give the natural chain unless they say otherwise; changes in a name come on top. Chains listed by the source or under a name are the forms on record and can include a tag or linker.
Nedd4, endogenously expressed in Hek 293T cells (human (endogenous in HEK-293T cells)) (P46934, form named): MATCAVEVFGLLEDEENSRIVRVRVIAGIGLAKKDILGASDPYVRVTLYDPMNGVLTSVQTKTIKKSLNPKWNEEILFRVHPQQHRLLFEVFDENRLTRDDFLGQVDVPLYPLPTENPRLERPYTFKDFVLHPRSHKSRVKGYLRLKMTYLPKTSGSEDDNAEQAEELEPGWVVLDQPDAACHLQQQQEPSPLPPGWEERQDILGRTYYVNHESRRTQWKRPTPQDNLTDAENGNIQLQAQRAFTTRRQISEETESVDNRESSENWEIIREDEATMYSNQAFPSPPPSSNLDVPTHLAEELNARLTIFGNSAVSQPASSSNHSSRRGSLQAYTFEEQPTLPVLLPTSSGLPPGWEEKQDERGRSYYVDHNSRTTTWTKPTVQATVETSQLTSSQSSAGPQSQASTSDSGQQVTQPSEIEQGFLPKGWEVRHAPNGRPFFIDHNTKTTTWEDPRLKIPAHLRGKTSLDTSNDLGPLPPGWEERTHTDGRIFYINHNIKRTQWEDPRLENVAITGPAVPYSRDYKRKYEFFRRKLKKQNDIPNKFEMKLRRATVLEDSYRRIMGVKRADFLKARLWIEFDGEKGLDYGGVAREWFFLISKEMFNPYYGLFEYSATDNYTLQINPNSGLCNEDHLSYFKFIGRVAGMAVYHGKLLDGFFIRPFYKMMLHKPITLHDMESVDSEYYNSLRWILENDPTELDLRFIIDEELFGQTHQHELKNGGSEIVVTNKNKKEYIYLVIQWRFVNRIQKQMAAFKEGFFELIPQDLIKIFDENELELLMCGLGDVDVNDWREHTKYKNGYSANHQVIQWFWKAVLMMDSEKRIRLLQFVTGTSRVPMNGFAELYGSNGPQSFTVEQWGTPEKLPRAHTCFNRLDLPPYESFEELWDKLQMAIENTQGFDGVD

Tests used:
[1] = molecular target: T1, Flag-tagged full-length GRF4 (human) (UniProt Q9Y4G8); test: pull-down with GST-PDZ beads
T1 sequence: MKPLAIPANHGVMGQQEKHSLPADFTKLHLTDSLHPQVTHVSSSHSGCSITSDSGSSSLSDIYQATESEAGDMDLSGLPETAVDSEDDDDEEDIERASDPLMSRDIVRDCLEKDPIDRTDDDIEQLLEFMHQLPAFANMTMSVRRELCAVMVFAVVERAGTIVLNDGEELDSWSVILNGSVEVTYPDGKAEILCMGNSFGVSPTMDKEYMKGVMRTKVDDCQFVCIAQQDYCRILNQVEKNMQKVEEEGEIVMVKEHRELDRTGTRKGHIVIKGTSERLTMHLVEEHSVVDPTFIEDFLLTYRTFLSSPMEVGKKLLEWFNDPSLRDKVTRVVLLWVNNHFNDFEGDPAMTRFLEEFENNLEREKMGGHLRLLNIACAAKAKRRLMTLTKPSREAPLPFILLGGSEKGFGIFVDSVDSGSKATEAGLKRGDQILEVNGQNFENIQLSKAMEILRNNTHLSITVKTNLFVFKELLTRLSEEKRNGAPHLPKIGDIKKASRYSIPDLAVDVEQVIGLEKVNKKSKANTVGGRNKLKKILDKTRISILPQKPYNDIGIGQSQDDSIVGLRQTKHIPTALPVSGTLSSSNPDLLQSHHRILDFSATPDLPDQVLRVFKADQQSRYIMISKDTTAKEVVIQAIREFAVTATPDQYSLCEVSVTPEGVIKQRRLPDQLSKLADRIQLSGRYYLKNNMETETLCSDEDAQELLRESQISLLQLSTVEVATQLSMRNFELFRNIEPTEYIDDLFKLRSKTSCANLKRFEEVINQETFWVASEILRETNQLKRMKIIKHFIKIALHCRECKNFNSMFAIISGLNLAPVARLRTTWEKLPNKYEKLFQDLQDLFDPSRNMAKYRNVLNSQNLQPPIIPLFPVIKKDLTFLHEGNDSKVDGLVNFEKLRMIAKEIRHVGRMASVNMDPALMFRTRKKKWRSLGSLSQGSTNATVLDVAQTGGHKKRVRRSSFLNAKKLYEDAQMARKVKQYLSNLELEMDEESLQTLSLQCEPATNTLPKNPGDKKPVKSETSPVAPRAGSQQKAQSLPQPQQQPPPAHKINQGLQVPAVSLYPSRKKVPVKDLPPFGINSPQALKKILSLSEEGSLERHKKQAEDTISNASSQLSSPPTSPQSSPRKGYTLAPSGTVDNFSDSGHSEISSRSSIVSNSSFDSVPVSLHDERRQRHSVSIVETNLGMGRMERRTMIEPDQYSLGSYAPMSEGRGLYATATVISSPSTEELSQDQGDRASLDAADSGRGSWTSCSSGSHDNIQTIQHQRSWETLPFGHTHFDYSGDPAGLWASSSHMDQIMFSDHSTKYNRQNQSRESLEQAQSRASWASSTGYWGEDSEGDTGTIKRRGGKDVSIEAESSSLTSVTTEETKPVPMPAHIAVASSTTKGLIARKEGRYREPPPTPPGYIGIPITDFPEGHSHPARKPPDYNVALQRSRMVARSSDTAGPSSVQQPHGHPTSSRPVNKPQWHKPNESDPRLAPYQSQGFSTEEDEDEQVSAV

[2] = molecular target: T1, Flag-tagged full-length GRF4 (human); test: summary of results (pull-down)
[3] = molecular target: T1, Flag-tagged full-length GRF4 (human); test: pull-down of Flag-tagged GRF4 from 293T lysates with GST-PDZ beads; anti-Flag immunoblot
[4] = molecular target: Nedd4, endogenously expressed in Hek 293T cells (human (endogenous in HEK-293T cells)) (UniProt P46934); test: GST pull-down from 293T lysates; Nedd4 immunoblot
[5] = molecular target: Nedd4, endogenously expressed in Hek 293T cells (human (endogenous in HEK-293T cells)) (UniProt P46934); test: co-immunoprecipitation from transfected Hek 293T cells
[6] = molecular target: Nedd4, endogenously expressed in Hek 293T cells (human (endogenous in HEK-293T cells)) (UniProt P46934); test: summary of results (pull-down and co-immunoprecipitation)
[7] = molecular target: Nedd4, endogenously expressed in Hek 293T cells (human (endogenous in HEK-293T cells)) (UniProt P46934); test: co-immunoprecipitation with anti-Flag affinity gel from transfected Hek 293T cells; Nedd4 immunoblot

B1: GST-fusion protein of GRF4-PDZ domain (GST-PDZ) (protein, not shown: a dimerising Fc or GST)
chain: MTLTKPSREAPLPFILLGGSEKGFGIFVDSVDSGSKATEAGLKRGDQILEVNGQNFENIQLSKAMEILRNNTHLSITVKTNLFVF
In the case of B1, the binding [1] is reported as “binds”, the binding [2] is reported as “binds” and the binding [3] is reported as “binds”.

B2: GST-fusion protein of the C-terminal last 150 amino acids of GRF4, containing the two PY motifs (protein, not shown: a dimerising Fc or GST)
chain: GGKDVSIEAESSSLTSVTTEETKPVPMPAHIAVASSTTKGLIARKEGRYREPPPTPPGYIGIPITDFPEGHSHPARKPPDYNVALQRSRMVARSSDTAGPSSVQQPHGHPTSSRPVNKPQWHKPNESDPRLAPYQSQGFSTEEDEDEQVSAV
With B2 the binding [4] was “binds”.

B3: Flag-tagged full-length GRF4 (enzyme, not shown: small tags and cut ends)
chain: MKPLAIPANHGVMGQQEKHSLPADFTKLHLTDSLHPQVTHVSSSHSGCSITSDSGSSSLSDIYQATESEAGDMDLSGLPETAVDSEDDDDEEDIERASDPLMSRDIVRDCLEKDPIDRTDDDIEQLLEFMHQLPAFANMTMSVRRELCAVMVFAVVERAGTIVLNDGEELDSWSVILNGSVEVTYPDGKAEILCMGNSFGVSPTMDKEYMKGVMRTKVDDCQFVCIAQQDYCRILNQVEKNMQKVEEEGEIVMVKEHRELDRTGTRKGHIVIKGTSERLTMHLVEEHSVVDPTFIEDFLLTYRTFLSSPMEVGKKLLEWFNDPSLRDKVTRVVLLWVNNHFNDFEGDPAMTRFLEEFENNLEREKMGGHLRLLNIACAAKAKRRLMTLTKPSREAPLPFILLGGSEKGFGIFVDSVDSGSKATEAGLKRGDQILEVNGQNFENIQLSKAMEILRNNTHLSITVKTNLFVFKELLTRLSEEKRNGAPHLPKIGDIKKASRYSIPDLAVDVEQVIGLEKVNKKSKANTVGGRNKLKKILDKTRISILPQKPYNDIGIGQSQDDSIVGLRQTKHIPTALPVSGTLSSSNPDLLQSHHRILDFSATPDLPDQVLRVFKADQQSRYIMISKDTTAKEVVIQAIREFAVTATPDQYSLCEVSVTPEGVIKQRRLPDQLSKLADRIQLSGRYYLKNNMETETLCSDEDAQELLRESQISLLQLSTVEVATQLSMRNFELFRNIEPTEYIDDLFKLRSKTSCANLKRFEEVINQETFWVASEILRETNQLKRMKIIKHFIKIALHCRECKNFNSMFAIISGLNLAPVARLRTTWEKLPNKYEKLFQDLQDLFDPSRNMAKYRNVLNSQNLQPPIIPLFPVIKKDLTFLHEGNDSKVDGLVNFEKLRMIAKEIRHVGRMASVNMDPALMFRTRKKKWRSLGSLSQGSTNATVLDVAQTGGHKKRVRRSSFLNAKKLYEDAQMARKVKQYLSNLELEMDEESLQTLSLQCEPATNTLPKNPGDKKPVKSETSPVAPRAGSQQKAQSLPQPQQQPPPAHKINQGLQVPAVSLYPSRKKVPVKDLPPFGINSPQALKKILSLSEEGSLERHKKQAEDTISNASSQLSSPPTSPQSSPRKGYTLAPSGTVDNFSDSGHSEISSRSSIVSNSSFDSVPVSLHDERRQRHSVSIVETNLGMGRMERRTMIEPDQYSLGSYAPMSEGRGLYATATVISSPSTEELSQDQGDRASLDAADSGRGSWTSCSSGSHDNIQTIQHQRSWETLPFGHTHFDYSGDPAGLWASSSHMDQIMFSDHSTKYNRQNQSRESLEQAQSRASWASSTGYWGEDSEGDTGTIKRRGGKDVSIEAESSSLTSVTTEETKPVPMPAHIAVASSTTKGLIARKEGRYREPPPTPPGYIGIPITDFPEGHSHPARKPPDYNVALQRSRMVARSSDTAGPSSVQQPHGHPTSSRPVNKPQWHKPNESDPRLAPYQSQGFSTEEDEDEQVSAV
In the case of B3, the binding [5] is reported as “binds”, the binding [6] is reported as “binds” and the binding [7] is reported as “binds”.
